{
  "sequences": {"note": "Sequences of proteins named here, by UniProt entry; tags and fusion partners are left off.", "UniProt Q12809, whole entry": "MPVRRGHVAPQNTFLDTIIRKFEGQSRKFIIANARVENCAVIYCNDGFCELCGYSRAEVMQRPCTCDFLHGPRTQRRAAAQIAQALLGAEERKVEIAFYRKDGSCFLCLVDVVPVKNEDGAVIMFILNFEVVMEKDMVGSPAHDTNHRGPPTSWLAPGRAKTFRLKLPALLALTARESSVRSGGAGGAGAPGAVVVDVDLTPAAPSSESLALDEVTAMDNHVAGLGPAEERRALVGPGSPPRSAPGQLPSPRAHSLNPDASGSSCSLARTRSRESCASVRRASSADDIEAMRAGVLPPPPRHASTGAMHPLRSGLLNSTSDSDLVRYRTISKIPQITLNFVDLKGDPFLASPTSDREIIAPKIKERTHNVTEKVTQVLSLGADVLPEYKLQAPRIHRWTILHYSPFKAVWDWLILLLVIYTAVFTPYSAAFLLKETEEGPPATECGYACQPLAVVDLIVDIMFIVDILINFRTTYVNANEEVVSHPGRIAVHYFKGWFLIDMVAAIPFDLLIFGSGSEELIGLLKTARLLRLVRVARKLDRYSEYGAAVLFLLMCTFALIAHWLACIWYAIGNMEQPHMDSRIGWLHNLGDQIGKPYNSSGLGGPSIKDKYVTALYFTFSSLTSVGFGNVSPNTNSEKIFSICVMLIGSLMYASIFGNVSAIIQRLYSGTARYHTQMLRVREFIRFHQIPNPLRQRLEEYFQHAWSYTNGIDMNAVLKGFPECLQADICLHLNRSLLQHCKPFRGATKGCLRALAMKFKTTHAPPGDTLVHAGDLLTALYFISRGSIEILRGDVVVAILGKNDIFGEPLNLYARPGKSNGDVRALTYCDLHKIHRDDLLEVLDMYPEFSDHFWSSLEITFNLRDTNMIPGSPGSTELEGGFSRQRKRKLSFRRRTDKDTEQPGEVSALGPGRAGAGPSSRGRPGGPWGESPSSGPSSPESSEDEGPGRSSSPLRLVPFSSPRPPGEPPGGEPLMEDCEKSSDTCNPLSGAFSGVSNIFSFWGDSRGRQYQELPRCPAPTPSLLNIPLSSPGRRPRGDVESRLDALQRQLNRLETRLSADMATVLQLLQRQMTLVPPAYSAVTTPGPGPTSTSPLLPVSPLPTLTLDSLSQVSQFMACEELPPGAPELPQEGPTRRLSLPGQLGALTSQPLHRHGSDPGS"},
  "source": "PubChem BioAssay AID720551",
  "about": "(National Center for Advancing Translational Sciences (NCATS), 2013)",
  "note": "The campaign covered roughly 340,000 compounds. About 1,300 (0.38%) were called active. All entries are inconclusive by the source's own rule. Clear calls are listed elsewhere.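 The calls were made as follows: active = maximum activity change below -70%; inconclusive = maximum activity change between -70% and -50%; inactive = maximum activity change above -50%.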",
  "data": [
    {"biological_target": "Voltage-gated inwardly rectifying potassium channel KCNH2 (Homo sapiens) (UniProt Q12809)", "test": "qHTS for Inhibitors of KCHN2 3.1: Wildtype qHTS", "settings": "U2OS, BacMam KCNH2, thallium flux FluxOr", "source_text": "Many antipsychotic drugs that inhibit the neurotransmitter dopamine also bind to hERG1 channel which might help explain their antipsychotic activity but also produces cardiac side effects. The discovery of the novel KCNH2 3.1 isoform offers a potential new target for the development of antipsychotic drugs without cardiac side effects. This proposal will use a high throughput thallium flux assay developed for KCNH2 to screen compounds that modulate the activity of KCNH2 3.1. The wild type KCNH2 channel will also be screened in parallel to help define the selective modulators of this KCNH2 3.1 potassium channel. The resulting compounds will be validated in electrophysiology experiments. The availability of animal models will allow future testing in vivo for effects on memory and other aspects of animal physiology linked with psychosis. NIH Chemical Genomics Center [NCGC] NIH Molecular Libraries Probe Centers Network [MLPCN] MLPCN Grant: MH096539 Assay Submitter (PI): James Barrow, Johns Hopkins University, Lieber Institute for Brain Development\nU2OS cells were resuspended in cell media containing 10% fetal calf serum (FCS) at a concentration of 2 million cells / mL. […] A stimulation buffer was added to the plate and the second kinetic read (2 min) was obtained. The rate constant was calculated from the kinetic reads and normalized to the positive and negative DMSO controls.", "values": [
      {"smiles": "O=C(NCC1(N2CCCCC2)CCCCC1)c1ccc(OC(F)F)cc1", "outcome": "inconclusive"}
    ]}
  ]
}
